Reference: the supplement of paper PMC10849652
Some of the results follow.

By UniProt entry, the sequences of proteins in these tests, tags left out. Where a name states a change or a piece, a line headed by the entry shows the natural chain unless it says otherwise.
UniProt O15067: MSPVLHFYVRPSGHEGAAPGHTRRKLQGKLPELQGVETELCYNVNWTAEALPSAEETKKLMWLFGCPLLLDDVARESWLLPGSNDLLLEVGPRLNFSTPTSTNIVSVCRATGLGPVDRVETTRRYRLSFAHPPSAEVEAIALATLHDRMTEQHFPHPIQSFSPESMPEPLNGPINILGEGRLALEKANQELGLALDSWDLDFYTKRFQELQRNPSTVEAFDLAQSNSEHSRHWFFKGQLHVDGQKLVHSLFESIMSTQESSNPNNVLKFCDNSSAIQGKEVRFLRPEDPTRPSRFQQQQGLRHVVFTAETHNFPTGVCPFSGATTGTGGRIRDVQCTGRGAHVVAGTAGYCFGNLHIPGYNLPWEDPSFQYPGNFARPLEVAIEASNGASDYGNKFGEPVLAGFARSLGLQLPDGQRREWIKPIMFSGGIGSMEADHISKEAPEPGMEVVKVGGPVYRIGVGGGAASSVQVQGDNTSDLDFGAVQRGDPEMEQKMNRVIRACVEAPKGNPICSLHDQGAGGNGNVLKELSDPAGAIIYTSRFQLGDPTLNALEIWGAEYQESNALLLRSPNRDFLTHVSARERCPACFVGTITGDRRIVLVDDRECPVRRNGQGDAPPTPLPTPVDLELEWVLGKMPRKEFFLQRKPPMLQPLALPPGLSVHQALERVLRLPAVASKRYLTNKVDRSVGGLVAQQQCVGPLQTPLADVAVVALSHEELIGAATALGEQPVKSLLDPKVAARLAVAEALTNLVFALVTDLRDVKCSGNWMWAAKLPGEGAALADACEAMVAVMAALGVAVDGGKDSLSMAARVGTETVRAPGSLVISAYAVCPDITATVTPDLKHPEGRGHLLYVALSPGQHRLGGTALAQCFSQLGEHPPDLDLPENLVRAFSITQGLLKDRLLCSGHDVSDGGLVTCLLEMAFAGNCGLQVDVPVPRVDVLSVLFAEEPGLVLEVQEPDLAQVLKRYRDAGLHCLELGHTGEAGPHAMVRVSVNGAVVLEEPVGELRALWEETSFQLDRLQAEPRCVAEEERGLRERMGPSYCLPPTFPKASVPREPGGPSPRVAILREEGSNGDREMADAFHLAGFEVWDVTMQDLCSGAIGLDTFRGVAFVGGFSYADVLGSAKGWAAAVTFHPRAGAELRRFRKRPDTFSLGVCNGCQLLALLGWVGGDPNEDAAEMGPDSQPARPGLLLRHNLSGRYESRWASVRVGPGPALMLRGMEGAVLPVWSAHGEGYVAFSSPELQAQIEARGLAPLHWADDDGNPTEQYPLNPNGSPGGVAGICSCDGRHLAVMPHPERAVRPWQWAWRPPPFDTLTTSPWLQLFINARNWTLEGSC
UniProt O15212, whole entry, looked up: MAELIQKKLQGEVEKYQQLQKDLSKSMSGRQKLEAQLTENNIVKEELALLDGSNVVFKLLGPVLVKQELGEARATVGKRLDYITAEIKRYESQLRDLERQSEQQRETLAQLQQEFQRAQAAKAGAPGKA
UniProt P40855: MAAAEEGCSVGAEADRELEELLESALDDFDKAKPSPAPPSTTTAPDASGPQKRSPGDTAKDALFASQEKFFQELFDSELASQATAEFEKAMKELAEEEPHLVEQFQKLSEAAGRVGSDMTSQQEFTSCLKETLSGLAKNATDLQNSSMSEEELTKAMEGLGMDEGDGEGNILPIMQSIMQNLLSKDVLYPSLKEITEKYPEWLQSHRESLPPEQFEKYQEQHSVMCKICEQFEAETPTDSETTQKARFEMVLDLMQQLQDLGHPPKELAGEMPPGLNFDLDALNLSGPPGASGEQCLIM
UniProt Q8IZL8: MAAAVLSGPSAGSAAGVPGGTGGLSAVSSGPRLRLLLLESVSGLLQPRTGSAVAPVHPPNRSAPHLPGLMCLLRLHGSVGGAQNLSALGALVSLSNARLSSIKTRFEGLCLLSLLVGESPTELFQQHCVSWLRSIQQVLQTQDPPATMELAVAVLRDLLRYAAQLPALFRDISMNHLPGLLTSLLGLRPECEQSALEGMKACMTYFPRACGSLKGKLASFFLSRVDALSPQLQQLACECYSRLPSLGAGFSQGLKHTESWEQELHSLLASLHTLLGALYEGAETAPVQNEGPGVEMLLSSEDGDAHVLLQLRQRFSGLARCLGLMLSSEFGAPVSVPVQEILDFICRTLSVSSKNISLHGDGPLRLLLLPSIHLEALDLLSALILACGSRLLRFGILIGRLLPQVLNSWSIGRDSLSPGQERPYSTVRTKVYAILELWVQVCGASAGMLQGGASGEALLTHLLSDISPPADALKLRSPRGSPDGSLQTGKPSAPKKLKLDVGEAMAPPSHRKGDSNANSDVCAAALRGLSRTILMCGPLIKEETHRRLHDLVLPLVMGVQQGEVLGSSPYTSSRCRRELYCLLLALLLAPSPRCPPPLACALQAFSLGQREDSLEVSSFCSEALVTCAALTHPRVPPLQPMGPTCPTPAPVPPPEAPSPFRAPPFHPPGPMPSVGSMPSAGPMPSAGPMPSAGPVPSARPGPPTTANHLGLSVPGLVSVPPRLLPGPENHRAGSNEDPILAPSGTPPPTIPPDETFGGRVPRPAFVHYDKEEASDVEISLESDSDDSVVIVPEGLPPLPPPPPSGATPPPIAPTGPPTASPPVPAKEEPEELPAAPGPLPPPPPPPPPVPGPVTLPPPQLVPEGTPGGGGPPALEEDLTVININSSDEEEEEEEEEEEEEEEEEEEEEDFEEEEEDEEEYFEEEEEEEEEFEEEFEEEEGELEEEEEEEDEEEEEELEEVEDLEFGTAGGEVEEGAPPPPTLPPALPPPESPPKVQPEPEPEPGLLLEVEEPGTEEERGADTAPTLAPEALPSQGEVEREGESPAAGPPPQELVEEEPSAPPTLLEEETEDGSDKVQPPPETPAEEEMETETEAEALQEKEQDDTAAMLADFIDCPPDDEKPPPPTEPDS
UniProt O95453: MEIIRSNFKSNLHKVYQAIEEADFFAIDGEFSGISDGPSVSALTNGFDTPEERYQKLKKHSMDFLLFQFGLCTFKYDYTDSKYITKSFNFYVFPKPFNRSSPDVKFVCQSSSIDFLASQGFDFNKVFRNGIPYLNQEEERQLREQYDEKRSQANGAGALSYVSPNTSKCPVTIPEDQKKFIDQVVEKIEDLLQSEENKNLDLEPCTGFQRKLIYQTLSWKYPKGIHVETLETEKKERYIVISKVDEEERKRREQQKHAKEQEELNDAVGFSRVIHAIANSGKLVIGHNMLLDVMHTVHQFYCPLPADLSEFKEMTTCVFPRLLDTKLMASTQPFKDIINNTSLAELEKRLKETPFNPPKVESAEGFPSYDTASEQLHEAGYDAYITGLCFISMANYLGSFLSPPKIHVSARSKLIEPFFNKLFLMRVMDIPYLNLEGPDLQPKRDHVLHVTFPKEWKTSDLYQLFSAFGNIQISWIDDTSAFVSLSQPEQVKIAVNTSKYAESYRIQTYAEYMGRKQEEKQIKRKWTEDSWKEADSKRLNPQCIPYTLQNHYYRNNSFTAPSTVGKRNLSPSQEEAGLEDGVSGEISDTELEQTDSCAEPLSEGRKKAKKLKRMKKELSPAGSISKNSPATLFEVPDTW
UniProt Q32M88: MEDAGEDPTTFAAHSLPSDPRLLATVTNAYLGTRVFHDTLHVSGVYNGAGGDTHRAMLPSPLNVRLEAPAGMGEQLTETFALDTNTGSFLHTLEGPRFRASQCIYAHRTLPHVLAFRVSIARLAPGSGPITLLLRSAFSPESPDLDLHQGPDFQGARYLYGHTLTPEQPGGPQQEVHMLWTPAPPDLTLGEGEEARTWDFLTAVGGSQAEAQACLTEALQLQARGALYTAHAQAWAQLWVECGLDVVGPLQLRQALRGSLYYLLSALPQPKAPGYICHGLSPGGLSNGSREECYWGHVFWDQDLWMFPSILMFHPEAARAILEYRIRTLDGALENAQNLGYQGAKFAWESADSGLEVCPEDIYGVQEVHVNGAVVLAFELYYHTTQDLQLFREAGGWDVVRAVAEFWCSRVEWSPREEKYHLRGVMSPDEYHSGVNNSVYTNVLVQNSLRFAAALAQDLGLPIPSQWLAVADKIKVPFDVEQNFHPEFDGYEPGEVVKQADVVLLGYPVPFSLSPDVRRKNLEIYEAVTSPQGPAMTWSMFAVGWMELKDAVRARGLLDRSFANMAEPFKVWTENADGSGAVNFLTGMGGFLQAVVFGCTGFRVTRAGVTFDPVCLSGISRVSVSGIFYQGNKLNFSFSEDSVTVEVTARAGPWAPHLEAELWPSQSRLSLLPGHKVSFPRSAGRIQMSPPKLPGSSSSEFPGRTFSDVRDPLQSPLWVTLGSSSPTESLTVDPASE
UniProt Q99447: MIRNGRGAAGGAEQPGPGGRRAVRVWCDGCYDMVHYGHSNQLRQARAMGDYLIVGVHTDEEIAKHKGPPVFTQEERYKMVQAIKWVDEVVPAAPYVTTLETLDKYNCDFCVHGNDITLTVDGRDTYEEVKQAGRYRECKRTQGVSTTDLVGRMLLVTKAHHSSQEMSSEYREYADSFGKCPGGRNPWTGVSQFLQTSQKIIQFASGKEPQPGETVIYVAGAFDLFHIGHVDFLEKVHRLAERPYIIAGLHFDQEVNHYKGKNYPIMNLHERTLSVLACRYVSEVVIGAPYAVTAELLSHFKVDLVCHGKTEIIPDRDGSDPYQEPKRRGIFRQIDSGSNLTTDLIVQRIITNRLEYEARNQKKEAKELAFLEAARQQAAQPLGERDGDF
UniProt Q9UKK3: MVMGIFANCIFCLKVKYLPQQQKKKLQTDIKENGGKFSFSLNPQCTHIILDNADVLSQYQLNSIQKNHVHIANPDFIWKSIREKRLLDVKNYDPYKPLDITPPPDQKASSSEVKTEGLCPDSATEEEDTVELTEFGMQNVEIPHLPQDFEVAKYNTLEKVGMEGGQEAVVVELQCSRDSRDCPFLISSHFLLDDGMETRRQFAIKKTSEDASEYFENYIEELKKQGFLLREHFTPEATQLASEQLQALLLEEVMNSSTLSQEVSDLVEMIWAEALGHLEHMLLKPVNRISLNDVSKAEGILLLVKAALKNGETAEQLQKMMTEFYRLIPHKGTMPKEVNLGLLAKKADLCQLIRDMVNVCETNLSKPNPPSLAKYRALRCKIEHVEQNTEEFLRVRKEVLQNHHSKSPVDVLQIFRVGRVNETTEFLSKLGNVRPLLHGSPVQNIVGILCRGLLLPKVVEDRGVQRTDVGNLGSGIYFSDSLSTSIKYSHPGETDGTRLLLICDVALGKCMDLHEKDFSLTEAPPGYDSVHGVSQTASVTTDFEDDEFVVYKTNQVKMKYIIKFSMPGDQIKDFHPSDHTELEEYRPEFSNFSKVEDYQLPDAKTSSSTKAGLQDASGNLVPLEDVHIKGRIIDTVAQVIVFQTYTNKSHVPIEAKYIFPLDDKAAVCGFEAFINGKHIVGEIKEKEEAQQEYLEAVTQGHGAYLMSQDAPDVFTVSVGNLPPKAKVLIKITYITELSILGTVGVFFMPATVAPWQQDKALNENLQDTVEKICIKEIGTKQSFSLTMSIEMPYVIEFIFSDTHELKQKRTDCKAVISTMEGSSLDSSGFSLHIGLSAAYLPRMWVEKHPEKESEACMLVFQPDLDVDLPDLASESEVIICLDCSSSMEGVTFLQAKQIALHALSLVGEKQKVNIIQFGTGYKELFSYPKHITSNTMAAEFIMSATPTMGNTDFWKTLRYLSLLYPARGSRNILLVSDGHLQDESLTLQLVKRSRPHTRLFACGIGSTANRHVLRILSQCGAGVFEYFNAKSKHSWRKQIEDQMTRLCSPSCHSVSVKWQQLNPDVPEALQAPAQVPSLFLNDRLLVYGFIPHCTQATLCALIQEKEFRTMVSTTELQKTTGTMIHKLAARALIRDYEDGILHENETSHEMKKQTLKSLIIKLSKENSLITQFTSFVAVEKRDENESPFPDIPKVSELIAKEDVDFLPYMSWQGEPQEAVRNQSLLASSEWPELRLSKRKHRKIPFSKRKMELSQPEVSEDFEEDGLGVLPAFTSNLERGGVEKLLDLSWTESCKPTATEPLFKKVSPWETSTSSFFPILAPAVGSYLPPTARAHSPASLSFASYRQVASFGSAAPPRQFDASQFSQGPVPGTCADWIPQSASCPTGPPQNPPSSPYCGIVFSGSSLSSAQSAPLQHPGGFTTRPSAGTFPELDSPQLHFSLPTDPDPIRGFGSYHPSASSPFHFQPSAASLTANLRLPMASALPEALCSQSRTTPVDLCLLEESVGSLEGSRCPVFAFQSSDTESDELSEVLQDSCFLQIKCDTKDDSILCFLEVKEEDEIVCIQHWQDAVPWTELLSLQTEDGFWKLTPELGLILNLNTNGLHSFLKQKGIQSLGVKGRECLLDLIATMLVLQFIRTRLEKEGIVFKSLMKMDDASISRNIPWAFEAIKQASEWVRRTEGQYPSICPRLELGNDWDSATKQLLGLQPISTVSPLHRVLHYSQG

Tests used:
Assay in all cases: log2 fold change, soluble protein after heating vs DMSO (PISA); higher = thermal stabilisation; K562 lysate, 10 uM; active = over 0.2 and 3.5 SD of the protein, either way, in both replicates (recomputed)
[1] = compound: CS(=O)(=O)CCNCc1ccc(-c2ccc3ncnc(Nc4ccc(OCc5cccc(F)c5)c(Cl)c4)c3c2)o1 [lapatinib]
Procedure, shortened: (§1)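 Pellets of K562 cells were dounce-homogenised in PBS pH 7.4 with 1 mM MgCl2, and the crude extract was held at 1 mg/mL protein for a 30 min treatment with 10 μM compound. Aliquots were heated for 3 min over 48°C-58°C and pooled before NP-40 was added to 0.5% at 4°C. The supernatant from 21,000xg for 90 min was quantified by TMTpro 16plex LC-MS/MS with channel sums equalised. Values are reported from duplicates as log-two fold change in thermal stability relative to solvent controls.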

[2] = compound: CS(=O)(=O)N1CCN(Cc2cc3nc(-c4cccc5[nH]ncc45)nc(N4CCOCC4)c3s2)CC1 [pictilisib]
Procedure, shortened: as §1

[3] = compound: C[C@@H](Oc1cc(-c2cnn(C3CCNCC3)c2)cnc1N)c1c(Cl)ccc(F)c1Cl [crizotinib]
Procedure, shortened: as §1

[4] = compound: C[C@H](C1=CC=C(C=C1)C(=O)NC2=C3C=CNC3=NC=C2)N
Procedure, shortened: as §1

[5] = compound: C[C@H](Nc1ncnc2nc[nH]c12)c1cc2cccc(Cl)c2c(=O)n1-c1ccccc1 [duvelisib]
Procedure, shortened: as §1

[6] = compound: Cc1cc(Nc2cc(CN3CCOCC3)c3nc(C)c(Cc4ccc(Cl)cc4F)n3n2)n[nH]1 [gandotinib]
Procedure, shortened: as §1

[7] = compound: Cc1cc(Nc2cc(N3CCN(C)CC3)nc(Sc3ccc(NC(=O)C4CC4)cc3)n2)n[nH]1 [tozasertib]
Procedure, shortened: as §1

[8] = compound: Cc1ccc(-n2nc(C(C)(C)C)cc2NC(=O)Nc2ccc(OCCN3CCOCC3)c3ccccc23)cc1 [doramapimod]
Procedure, shortened: as §1

[9] = compound: Cc1ccc(NC(=O)c2ccc(CN3CC[C@H](N(C)C)C3)c(C(F)(F)F)c2)cc1Nc1nccc(-c2cncnc2)n1 [bafetinib]
Procedure, shortened: as §1

[10] = compound: Cc1cccc(CC(=O)N2CCc3c2ccc(-c2cn(C)c4ncnc(N)c24)c3F)n1
Procedure, shortened: as §1

[11] = compound: Cc1cn(-c2cc(NC(=O)c3ccc(C)c(Nc4nccc(-c5cccnc5)n4)c3)cc(C(F)(F)F)c2)cn1 [nilotinib]
Procedure, shortened: as §1

[12] = compound: Cc1nc(Nc2n[nH]c3c2CN(C(=O)N[C@H](CN(C)C)c2ccccc2)C3(C)C)c2sccc2n1
Procedure, shortened: as §1

[13] = compound: Cc1nc(Nc2ncc(C(=O)Nc3c(C)cccc3Cl)s2)cc(N2CCN(CCO)CC2)n1 [dasatinib]
Procedure, shortened: as §1

[14] = compound: Cc1ncc(-c2ccnc(Nc3ccc(S(C)(=O)=O)cc3)n2)n1C(C)C
Procedure, shortened: as §1

[15] = compound: Cn1cc(-c2ccc3c(c2)CCN3C(=O)Cc2cccc(C(F)(F)F)c2)c2c(N)ncnc21
Procedure, shortened: as §1

[16] = compound: Cn1cc(CNCC2CCN(c3ncc(C(=O)NO)cn3)CC2)c2ccccc21 [quisinostat]
Procedure, shortened: as §1

[17] = compound: Cn1cncc1[C@@](N)(c1ccc(Cl)cc1)c1ccc2c(c1)c(-c1cccc(Cl)c1)cc(=O)n2C [tipifarnib]
Procedure, shortened: as §1

[18] = compound: NC(=O)Nc1cc(-c2cccc(F)c2)sc1C(=O)N[C@H]1CCCNC1
Procedure, shortened: as §1

[19] = compound: NC(=O)c1cnc(N[C@@H]2CCCC[C@@H]2N)nc1Nc1cccc(-n2nccn2)c1
Procedure, shortened: as §1

[20] = compound: NC1(c2ccc(-c3nc4ccn5c(=O)[nH]nc5c4cc3-c3ccccc3)cc2)CCC1
Procedure, shortened: as §1

Measured: log2 fold change

PFAS (UniProt O15067)
inactive: [1] -0.01 | [2] -0.011 | [3] -0.067 | [4] -0.011 | [5] -0.009 | [6] 0.002 | [7] -0.008 | [8] 0.035 | [9] -0.028 | [10] 0.019 | [11] 0.015 | [12] -0.023 | [13] -0.031 | [14] -0.017 | [15] 0.008 | [16] -0.037 | [17] 0.01 | [18] 0.01 | [19] 0.005 | [20] -0.009

PCBP2 (UniProt H3BRU6)
inactive: [1] 0.116 | [2] -0.021 | [3] -0.04 | [4] 0.044 | [5] 0.028 | [6] 0.01 | [7] -0.112 | [8] -0.119 | [9] 0.079 | [10] -0.041 | [11] 0.066 | [12] 0.04 | [13] 0.079 | [14] 0.027 | [15] -0.082 | [16] -0.119 | [17] -0.095 | [18] 0.042 | [19] -0.023 | [20] 0.084

PFDN6 (UniProt O15212)
inactive: [1] -0.021 | [2] -0.109 | [3] 0.018 | [4] 0.056 | [5] 0.017 | [6] -0.059 | [7] 0.016 | [8] 0.017 | [9] 0.013 | [10] -0.14 | [11] 0.035 | [12] -0.001 | [13] 0.018 | [14] 0.051 | [15] -0.01 | [16] -0.013 | [17] 0.048 | [18] -0.037 | [19] -0.006 | [20] 0.025

PDCD11 (UniProt Q14690)
inactive: [1] -0.039 | [2] -0.097 | [3] -0.114 | [4] 0.026 | [5] 0.027 | [6] -0.038 | [7] -0.003 | [8] 0.007 | [9] -0.008 | [10] 0.042 | [11] -0.049 | [12] -0.04 | [13] -0.099 | [14] -0.043 | [15] -0.035 | [16] -0.092 | [17] -0.04 | [18] 0.039 | [19] 0.029 | [20] -0.065

PEX19 (UniProt P40855)
inactive: [1] 0.029 | [2] 0.031 | [3] -0.049 | [4] -0.021 | [5] 0.042 | [6] 0.058 | [7] -0.024 | [8] -0.008 | [9] -0.047 | [10] 0.044 | [11] 0 | [12] 0 | [13] -0.027 | [14] 0.049 | [15] -0.01 | [16] -0.076 | [17] 0.018 | [18] -0.008 | [19] -0.006 | [20] -0.037

2 entries drawn at random from those above, as already listed:
PDCD11 (UniProt Q14690)
inactive: [1] -0.039 | [2] -0.097 | [3] -0.114 | [4] 0.026 | [5] 0.027 | [6] -0.038 | [7] -0.003 | [8] 0.007 | [9] -0.008 | [10] 0.042 | [11] -0.049 | [12] -0.04 | [13] -0.099 | [14] -0.043 | [15] -0.035 | [16] -0.092 | [17] -0.04 | [18] 0.039 | [19] 0.029 | [20] -0.065

PEX19 (UniProt P40855)
inactive: [1] 0.029 | [2] 0.031 | [3] -0.049 | [4] -0.021 | [5] 0.042 | [6] 0.058 | [7] -0.024 | [8] -0.008 | [9] -0.047 | [10] 0.044 | [11] 0 | [12] 0 | [13] -0.027 | [14] 0.049 | [15] -0.01 | [16] -0.076 | [17] 0.018 | [18] -0.008 | [19] -0.006 | [20] -0.037

(further entries)

PELP1 (UniProt Q8IZL8)
inactive: [1] -0.026 | [2] 0.015 | [3] -0.042 | [4] 0.115 | [5] -0.004 | [6] -0.053 | [7] -0.003 | [8] 0.001 | [9] -0.036 | [10] -0.044 | [11] 0.003 | [12] 0.018 | [13] -0.003 | [14] 0.008 | [15] -0.02 | [16] -0.063 | [17] -0.036 | [18] 0.021 | [19] 0.005 | [20] 0.037

PARN (UniProt O95453)
inactive: [1] -0.006 | [2] -0.021 | [3] -0.001 | [4] 0.043 | [5] 0.016 | [6] -0.018 | [7] 0.045 | [8] -0.004 | [9] -0.056 | [10] -0.013 | [11] 0.012 | [12] -0.03 | [13] 0.01 | [14] -0.016 | [15] 0.015 | [16] -0.024 | [17] -0.052 | [18] -0.011 | [19] 0.032 | [20] -0.007

PGGHG (UniProt Q32M88)
inactive: [1] 0.006 | [2] -0.057 | [3] -0.015 | [4] -0.058 | [5] 0.019 | [6] 0.023 | [7] -0.013 | [8] 0.025 | [9] 0.011 | [10] -0.031 | [11] 0.04 | [12] -0.045 | [13] -0.009 | [14] -0.088 | [15] -0.004 | [16] 0.022 | [17] -0.093 | [18] -0.014 | [19] -0.009 | [20] -0.077

PCYT2 isoform 3 (UniProt Q99447)
inactive: [1] -0.025 | [2] -0.011 | [3] -0.06 | [4] -0.057 | [5] 0.027 | [6] 0.143 | [7] 0.03 | [8] 0.031 | [9] -0.046 | [10] 0.018 | [11] -0.033 | [12] 0.005 | [13] 0.008 | [14] 0.006 | [15] 0.054 | [16] -0.116 | [17] -0.03 | [18] 0.013 | [19] 0.009 | [20] -0.066

PDCD4 (UniProt Q53EL6)
inactive: [1] -0.026 | [2] -0.003 | [3] -0.055 | [4] -0.051 | [5] -0.022 | [6] 0.009 | [7] -0.002 | [8] 0.011 | [9] -0.038 | [10] 0.062 | [11] 0.028 | [12] 0.019 | [13] -0.026 | [14] 0.035 | [15] 0.005 | [16] -0.044 | [17] -0.008 | [18] -0.01 | [19] 0.009 | [20] -0.013

PCYT1A (UniProt P49585)
inactive: [1] -0.007 | [2] -0.029 | [3] 0.001 | [4] 0.03 | [5] -0.01 | [6] -0.04 | [7] 0.015 | [8] 0.064 | [9] 0.029 | [10] -0.018 | [11] -0.14 | [12] 0.042 | [13] 0.04 | [14] -0.001 | [15] -0.019 | [16] 0.056 | [17] -0.006 | [18] -0.032 | [19] -0.029 | [20] 0.007

PDCD2 (UniProt Q16342)
inactive: [1] -0.015 | [2] -0.034 | [3] -0.02 | [4] -0.027 | [5] -0.041 | [6] -0.03 | [7] 0.021 | [8] 0.032 | [9] -0.059 | [10] 0.072 | [11] 0.07 | [12] 0.065 | [13] -0.009 | [14] 0.071 | [15] 0.031 | [16] 0.001 | [17] -0.011 | [18] 0.027 | [19] 0.038 | [20] -0.025

PDIA5 (UniProt Q14554)
inactive: [1] -0.004 | [2] -0.019 | [3] -0.011 | [4] 0.012 | [5] 0.004 | [6] 0.027 | [7] 0.013 | [8] 0.039 | [9] -0.01 | [10] 0.003 | [11] 0.03 | [12] -0.001 | [13] 0.017 | [14] -0.009 | [15] -0.008 | [16] -0.018 | [17] -0.023 | [18] 0.01 | [19] -0.019 | [20] -0.035

PDLIM5 (UniProt Q96HC4)
inactive: [1] 0.003 | [2] -0.007 | [3] 0.039 | [4] -0.127 | [5] -0.003 | [6] 0.106 | [7] -0.021 | [8] -0.026 | [9] 0.01 | [10] 0.096 | [11] 0.023 | [12] 0.003 | [13] 0.009 | [14] -0.006 | [15] -0.023 | [16] 0.016 | [17] 0.001 | [18] -0.023 | [19] -0.024 | [20] -0.01

PCCB (UniProt P05166)
inactive: [1] -0.021 | [2] -0.028 | [3] 0.007 | [4] -0.043 | [5] -0.021 | [6] 0.026 | [7] -0.013 | [8] -0.008 | [9] -0.017 | [10] 0.008 | [11] 0.034 | [12] -0.021 | [13] 0.007 | [14] -0.005 | [15] -0.007 | [16] 0.006 | [17] 0.002 | [18] 0.007 | [19] 0.005 | [20] 0.027

PARP4 (UniProt Q9UKK3)
inactive: [1] 0.153 | [2] -0.014 | [3] -0.053 | [4] 0.026 | [5] -0.08 | [6] -0.034 | [7] -0.189 | [8] -0.044 | [9] -0.085 | [10] 0.042 | [11] 0.054 | [12] -0.144 | [13] 0.104 | [14] -0.076 | [15] -0.025 | [16] 0.026 | [17] -0.153 | [18] 0.041 | [19] -0.136 | [20] -0.042
